T1: CDC25B (cell division cycle 25B) (mouse (endogenous in oocytes and eggs)) (UniProt P30306)
T1 sequence: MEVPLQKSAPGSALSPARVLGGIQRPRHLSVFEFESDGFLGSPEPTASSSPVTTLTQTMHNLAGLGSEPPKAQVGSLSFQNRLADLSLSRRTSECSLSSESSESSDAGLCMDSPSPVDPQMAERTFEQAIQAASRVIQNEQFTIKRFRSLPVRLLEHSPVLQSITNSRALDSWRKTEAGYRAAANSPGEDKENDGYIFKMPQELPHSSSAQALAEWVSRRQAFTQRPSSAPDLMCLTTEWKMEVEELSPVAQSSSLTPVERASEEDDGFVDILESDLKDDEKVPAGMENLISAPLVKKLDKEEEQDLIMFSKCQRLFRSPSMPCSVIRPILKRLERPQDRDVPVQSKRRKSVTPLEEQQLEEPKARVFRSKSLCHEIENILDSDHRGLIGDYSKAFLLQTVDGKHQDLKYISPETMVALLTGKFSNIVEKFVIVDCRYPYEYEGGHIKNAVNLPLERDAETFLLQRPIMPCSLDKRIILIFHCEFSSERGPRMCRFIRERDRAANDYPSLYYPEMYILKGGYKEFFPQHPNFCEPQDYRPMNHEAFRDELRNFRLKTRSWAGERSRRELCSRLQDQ

Amino acid sequences for entries named in this document (tags omitted).
UniProt P63101: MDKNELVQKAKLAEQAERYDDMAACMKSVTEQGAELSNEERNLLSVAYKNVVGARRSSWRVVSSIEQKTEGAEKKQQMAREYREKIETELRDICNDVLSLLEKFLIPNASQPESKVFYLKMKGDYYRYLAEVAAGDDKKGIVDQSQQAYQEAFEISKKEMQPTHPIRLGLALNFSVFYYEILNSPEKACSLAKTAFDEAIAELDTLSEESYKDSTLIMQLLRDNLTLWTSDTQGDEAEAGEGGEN
UniProt P62259: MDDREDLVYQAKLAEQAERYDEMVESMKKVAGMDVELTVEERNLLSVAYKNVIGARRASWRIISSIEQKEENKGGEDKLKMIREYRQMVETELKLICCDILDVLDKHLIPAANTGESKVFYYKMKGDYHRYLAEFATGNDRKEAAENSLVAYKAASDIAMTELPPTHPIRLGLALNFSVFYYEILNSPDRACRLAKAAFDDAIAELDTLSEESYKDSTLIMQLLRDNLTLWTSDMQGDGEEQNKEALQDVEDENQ

B1: YWHAG (Tyrosine 3-Monooxygenase/Tryptophan 5-Monooxygenase Activation protein, Gamma polypeptide) (protein, UniProt P61982 1-247)
chain: MVDREQLVQKARLAEQAERYDDMAAAMKNVTELNEPLSNEERNLLSVAYKNVVGARRSSWRVISSIEQKTSADGNEKKIEMVRAYREKIEKELEAVCQDVLSLLDNYLIKNCSETQYESKVFYLKMKGDYYRYLAEVATGEKRATVVESSEKAYSEAHEISKEHMQPTHPIRLGLALNYSVFYYEIQNAPEQACHLAKTAFDDAIAELDTLNEDSYKDSTLIMQLLRDNLTLWTSDQQDDDGGEGNN
B2: YWHAB (Tyrosine 3-Monooxygenase/Tryptophan 5-Monooxygenase Activation protein, Beta polypeptide) (protein, UniProt Q9CQV8-1 1-246)
chain: MTMDKSELVQKAKLAEQAERYDDMAAAMKAVTEQGHELSNEERNLLSVAYKNVVGARRSSWRVISSIEQKTERNEKKQQMGKEYREKIEAELQDICNDVLELLDKYLILNATQAESKVFYLKMKGDYFRYLSEVASGENKQTTVSNSQQAYQEAFEISKKEMQPTHPIRLGLALNFSVFYYEILNSPEKACSLAKTAFDEAIAELDTLNEESYKDSTLIMQLLRDNLTLWTSENQGDEGDAGEGEN
B3: SFN (Stratifin) (protein, UniProt O70456 1-248)
chain: MERASLIQKAKLAEQAERYEDMAAFMKSAVEKGEELSCEERNLLSVAYKNVVGGQRAAWRVLSSIEQKSNEEGSEEKGPEVKEYREKVETELRGVCDTVLGLLDSHLIKGAGDAESRVFYLKMKGDYYRYLAEVATGDDKKRIIDSARSAYQEAMDISKKEMPPTNPIRLGLALNFSVFHYEIANSPEEAISLAKTTFDEAMADLHTLSEDSYKDSTLIMQLLRDNLTLWTADSAGEEGGEAPEEPQS
B4: YWHAQ (Tyrosine 3-Monooxygenase/Tryptophan 5-Monooxygenase Activation protein, Theta/Tau polypeptide) (protein, UniProt P68254-1 1-245)
chain: MEKTELIQKAKLAEQAERYDDMATCMKAVTEQGAELSNEERNLLSVAYKNVVGGRRSAWRVISSIEQKTDTSDKKLQLIKDYREKVESELRSICTTVLELLDKYLIANATNPESKVFYLKMKGDYFRYLAEVACGDDRKQTIENSQGAYQEAFDISKKEMQPTHPIRLGLALNFSVFYYEILNNPELACTLAKTAFDEAIAELDTLNEDSYKDSTLIMQLLRDNLTLWTSDSAGEECDAAEGAEN
B5: YWHAH (Tyrosine 3-Monooxygenase/Tryptophan 5-Monooxygenase Activation protein, Eta polypeptide) (protein, UniProt P68510 1-246)
chain: MGDREQLLQRARLAEQAERYDDMASAMKAVTELNEPLSNEDRNLLSVAYKNVVGARRSSWRVISSIEQKTMADGNEKKLEKVKAYREKIEKELETVCNDVLALLDKFLIKNCNDFQYESKVFYLKMKGDYYRYLAEVASGEKKNSVVEASEAAYKEAFEISKEHMQPTHPIRLGLALNFSVFYYEIQNAPEQACLLAKQAFDDAIAELDTLNEDSYKDSTLIMQLLRDNLTLWTSDQQDEEAGEGN

For 7 molecules, binding results are on record in publication PMC6805688.

Results are given in words; binding and its absence hold for the method and conditions named. In cells and extracts the contact can be indirect. Some entries that bind do so weakly or less than the wild type.

The target in the assay is T1, CDC25B (cell division cycle 25B) (mouse (endogenous in oocytes and eggs)). The experiment in a line: proximity ligation; Duolink in situ PLA in fixed and permeabilized mouse oocytes and eggs; rabbit anti-14-3-3 isoform panel PAN017 and goat anti-CDC25B (sc-6948), each 1:200; confocal Z-stacks at 3 μm intervals.
Turning to “YWHAZ (Tyrosine 3-Monooxygenase/Tryptophan 5-Monooxygenase Activation protein, Zeta polypeptide) (from UniProt P63101 1-245)”, the binding entry is “binds”.

Consider “YWHAE (Tyrosine 3-Monooxygenase/Tryptophan 5-Monooxygenase Activation protein, Epsilon polypeptide) (from UniProt P62259 1-255)”, for which the binding entry is “binds”. Consider B1, for which the binding result was “binds”. In the case of B2 it was “binds”; in that of B3, “binds”; in that of B4, “binds”. In the case of B5, the binding entry is on record as “binds”.
